According to the supplement of paper PMC11348887:
Where a name gives a salt, the structure may show the parent alone. Some of the results follow. Most entries show no effect beyond the scatter of the controls.

Each compound was assayed on hPSC-derived cortical neurons (WA09) (assay: nucleus roundness z-score vs screen plate; higher = rounder nuclei (more mature)). Details: 5 µM; treatment: days 7-14 after plating, readout day 21.
COC(=O)N1CCN(Cc2cccc(NC(=O)Nc3ccc(C)nc3)c2F)CC1 gave a nucleus roundness z-score of 0.424.
Compound CN1CCN(c2ccc3nc(-c4c(N)c5c(F)cccc5[nH]c4=O)[nH]c3c2)CC1 [Dovitinib (TKI-258) Dilactic Acid] has a nucleus roundness z-score of -4.92.
CC[C@@]1(O)C(=O)OCc2c1cc1n(c2=O)Cc2cc3cc(O)ccc3nc2-1 [(S)-10-Hydroxycamptothecin] was tested, and the nucleus roundness z-score was -2.16.
CN(C)CCc1c[nH]c2ccc(C[C@H]3COC(=O)N3)cc12 [Zolmitriptan] gave a nucleus roundness z-score of -0.0163.
Work on NC1=N[C@@](c2cccc(-c3cncnc3)c2)(c2ccnc(C(F)F)c2)c2cccc(F)c21 yielded a nucleus roundness z-score of -0.767.
For CN(C)CCN(Cc1ccccc1)c1ccccn1 [Tripelennamine HCl], the nucleus roundness z-score was -0.0368.
Compound O=C(NC[C@H](O)CN1CCc2ccccc2C1)c1ccnc(NC2CCC2)c1 has a nucleus roundness z-score of -0.363.
Work on CC(C)(F)C[C@H](N[C@@H](c1ccc(-c2ccc(S(C)(=O)=O)cc2)cc1)C(F)(F)F)C(=O)NC1(C#N)CC1 [Odanacatib (MK-0822)] yielded a nucleus roundness z-score of 0.926.
With CO[C@H]1CC[C@H](N2C(=O)CNc3ncc(-c4ccc(C(C)(C)O)nc4)nc32)CC1 the nucleus roundness z-score was -2.24.
Compound CCN(CC)CCOCCOC(=O)C1(c2ccccc2)CCCC1 [Pentoxyverine Citrate] has a nucleus roundness z-score of -1.06.
CCCCOc1ccc(CC(=O)NO)cc1 [Bufexamac] showed a nucleus roundness z-score of 0.582.
CCCc1nc(C(C)(C)O)c(C(=O)OCc2oc(=O)oc2C)n1Cc1ccc(-c2ccccc2-c2nnn[nH]2)cc1 [Olmesartan Medoxomil] showed a nucleus roundness z-score of -0.328.
CC1(O)CCC(C(C)(C)O)CC1 (configuration not stated) [Terpin hydrate] was tested, and the nucleus roundness z-score was -0.0712.
With COc1cc2ncnc(Nc3ccc(Cl)cc3F)c2cc1OC the nucleus roundness z-score was 0.394.
For FC(F)(F)c1ccc(CNc2ccc(Cc3c[nH]c4ncc(Cl)cc34)cn2)cn1 [Pexidartinib (PLX3397)], the nucleus roundness z-score was -0.0326.
Work on Clc1ccc(C(c2c[nH]c3ccccc23)c2c[nH]c3ccccc23)cc1 yielded a nucleus roundness z-score of -5.17.
O=C(NCc1ccc(Oc2ccccc2)cc1)c1nc(-c2cc(Br)c(O)c(Br)c2)no1 showed a nucleus roundness z-score of 1.5.

These compounds were tested on hPSC-derived cortical neurons (WA09) (assay: KCl-induced FOS+/EGR-1+ double-positive nuclei fraction z-score (KCl minus unstimulated); higher = stronger activity-induced IEG response). Details: 5 µM; treatment: days 7-14 after plating, readout day 21.
For CCN(CC)CC#CCOC(=O)C(O)(c1ccccc1)C1CCCCC1 (configuration not stated) [Oxybutynin chloride], the “KCl-induced FOS+/EGR-1+ double-positive nuclei fraction z-score” value was 0.991.
In the case of C=CC(=O)Nc1cccc(Nc2nc(Nc3ccc(Oc4ccnc(C(=O)NC)c4)cc3)ncc2F)c1, the “KCl-induced FOS+/EGR-1+ double-positive nuclei fraction z-score” value is reported as -0.00235.
In the case of CC(C)n1c(/C=C/C(O)CC(O)CC(=O)O)c(-c2ccc(F)cc2)c2ccccc21 (configuration not stated) [Fluvastatin Sodium], the “KCl-induced FOS+/EGR-1+ double-positive nuclei fraction z-score” value is reported as -1.33.
In the case of CN1C(=O)C(Cc2c[nH]c3ccccc23)NC1=S (configuration not stated) [Necrostatin-1], the “KCl-induced FOS+/EGR-1+ double-positive nuclei fraction z-score” value is reported as 0.244.
For Nc1ccc(S(=O)(=O)Nc2ncccn2)cc1 [Sodium sulfadiazine], the “KCl-induced FOS+/EGR-1+ double-positive nuclei fraction z-score” value was -0.0736.
Nc1nc(=O)c2nc(CNc3ccc(C(=O)N[C@@H](CCC(=O)O)C(=O)O)cc3)cnc2[nH]1 [Folic acid] was tested, and the “KCl-induced FOS+/EGR-1+ double-positive nuclei fraction z-score” value was 0.346.
With CO[C@H]1C[C@@H]2CC[C@@H](C)[C@@](O)(O2)C(=O)C(=O)N2CCCC[C@H]2C(=O)O[C@H]([C@H](C)C[C@@H]2CC[C@@H](OP(C)(C)=O)[C@H](OC)C2)CC(=O)[C@H](C)/C=C(\C)[C@@H](O)[C@@H](OC)C(=O)[C@H](C)C[C@H](C)/C=C/C=C/C=C/1C [Ridaforolimus (Deforolimus, MK-8669)] the “KCl-induced FOS+/EGR-1+ double-positive nuclei fraction z-score” value was -0.784.
COc1ccccc1OCC(O)CN1CCN(CC(=O)Nc2c(C)cccc2C)CC1 (configuration not stated) [Ranolazine] was tested, and the “KCl-induced FOS+/EGR-1+ double-positive nuclei fraction z-score” value was 0.356.
For Oc1ccc(OC2CCCCO2)cc1 (configuration not stated) [Deoxyarbutin], the “KCl-induced FOS+/EGR-1+ double-positive nuclei fraction z-score” value was 0.145.
In the case of NCCCCC(NC(=O)C1CCCN1C(=O)C1CSSCC(N)C(=O)NC(Cc2ccc(O)cc2)C(=O)NC(Cc2ccccc2)C(=O)NC(CCC(N)=O)C(=O)NC(CC(N)=O)C(=O)N1)C(=O)NCC(N)=O (configuration not stated) [Lypressin Acetate], the “KCl-induced FOS+/EGR-1+ double-positive nuclei fraction z-score” value is reported as 1.37.
For C=CC(=O)Nc1cc(Nc2nccc(-c3c[nH]c4ccccc34)n2)c(OC)cc1N(C)CCN(C)C, the “KCl-induced FOS+/EGR-1+ double-positive nuclei fraction z-score” value was -14.9.
With C[C@]12CCC3=C4CCC(=O)C=C4CC[C@H]3[C@@H]1CC[C@@]2(O)CC#N [Dienogest] the “KCl-induced FOS+/EGR-1+ double-positive nuclei fraction z-score” value was 0.268.
Cc1nnc(SCC2=C(C(=O)O)N3C(=O)[C@@H](NC(=O)Cn4cnnn4)[C@H]3SC2)s1 [Cefazolin Sodium] was tested, and the “KCl-induced FOS+/EGR-1+ double-positive nuclei fraction z-score” value was 1.22.
With COc1ccc([C@@H]2Sc3ccccc3N(CCN(C)C)C(=O)[C@@H]2OC(C)=O)cc1 [Diltiazem HCl] the “KCl-induced FOS+/EGR-1+ double-positive nuclei fraction z-score” value was 0.0641.
NS(=O)(=O)c1cc2c(cc1Cl)NCNS2(=O)=O [Hydrochlorothiazide] was tested, and the “KCl-induced FOS+/EGR-1+ double-positive nuclei fraction z-score” value was -1.23.
For CCN(CC)CCN(Cc1ccc(-c2ccc(C(F)(F)F)cc2)cc1)C(=O)Cn1c(SCc2ccc(F)cc2)nc(=O)c2c1CCC2, the “KCl-induced FOS+/EGR-1+ double-positive nuclei fraction z-score” value was -0.418.
In the case of CCN1/C(=C/C(C)=O)Sc2ccc(OC)cc21, the “KCl-induced FOS+/EGR-1+ double-positive nuclei fraction z-score” value is reported as -0.094.
In the case of CC(C)(C)c1cnc(CSc2cnc(NC(=O)C3CCNCC3)s2)o1, the “KCl-induced FOS+/EGR-1+ double-positive nuclei fraction z-score” value is reported as -0.758.
With CS(=O)(=O)CCNCc1ccc(-c2ccc3ncnc(Nc4ccc(OCc5cccc(F)c5)c(Cl)c4)c3c2)o1 [Lapatinib] the “KCl-induced FOS+/EGR-1+ double-positive nuclei fraction z-score” value was -1.06.
For NCC[C@H](O)C(=O)N[C@@H]1C[C@H](N)[C@@H](O[C@H]2O[C@H](CN)[C@@H](O)[C@H](O)[C@H]2O)[C@H](O)[C@H]1O[C@H]1O[C@H](CO)[C@@H](O)[C@H](N)[C@H]1O [Amikacin hydrate], the “KCl-induced FOS+/EGR-1+ double-positive nuclei fraction z-score” value was -0.981.
For O=C(NCCO)c1cccc(-c2cc(Nc3ccc(OC(F)(F)F)cc3)ncn2)c1, the “KCl-induced FOS+/EGR-1+ double-positive nuclei fraction z-score” value was 0.175.
C#Cc1cccc(Nc2ncnc3cc(OC)c(OCCCCCCC(=O)NO)cc23)c1 was tested, and the “KCl-induced FOS+/EGR-1+ double-positive nuclei fraction z-score” value was -1.43.
With O=C1Cc2cc(CCN3CCN(c4nsc5ccccc45)CC3)c(Cl)cc2N1 [Ziprasidone HCl] the “KCl-induced FOS+/EGR-1+ double-positive nuclei fraction z-score” value was -0.582.
With COC(=O)N1CCN(Cc2cccc(NC(=O)Nc3ccc(C)nc3)c2F)CC1 the “KCl-induced FOS+/EGR-1+ double-positive nuclei fraction z-score” value was -0.288.
CN1CCN(c2ccc3nc(-c4c(N)c5c(F)cccc5[nH]c4=O)[nH]c3c2)CC1 [Dovitinib (TKI-258) Dilactic Acid] was tested, and the “KCl-induced FOS+/EGR-1+ double-positive nuclei fraction z-score” value was -0.995.
For CC[C@@]1(O)C(=O)OCc2c1cc1n(c2=O)Cc2cc3cc(O)ccc3nc2-1 [(S)-10-Hydroxycamptothecin], the “KCl-induced FOS+/EGR-1+ double-positive nuclei fraction z-score” value was -0.8.
With CN(C)CCc1c[nH]c2ccc(C[C@H]3COC(=O)N3)cc12 [Zolmitriptan] the “KCl-induced FOS+/EGR-1+ double-positive nuclei fraction z-score” value was -0.765.
In the case of NC1=N[C@@](c2cccc(-c3cncnc3)c2)(c2ccnc(C(F)F)c2)c2cccc(F)c21, the “KCl-induced FOS+/EGR-1+ double-positive nuclei fraction z-score” value is reported as -0.807.
CN(C)CCN(Cc1ccccc1)c1ccccn1 [Tripelennamine HCl] was tested, and the “KCl-induced FOS+/EGR-1+ double-positive nuclei fraction z-score” value was -0.122.
O=C(NC[C@H](O)CN1CCc2ccccc2C1)c1ccnc(NC2CCC2)c1 was tested, and the “KCl-induced FOS+/EGR-1+ double-positive nuclei fraction z-score” value was -0.0778.
In the case of CC(C)(F)C[C@H](N[C@@H](c1ccc(-c2ccc(S(C)(=O)=O)cc2)cc1)C(F)(F)F)C(=O)NC1(C#N)CC1 [Odanacatib (MK-0822)], the “KCl-induced FOS+/EGR-1+ double-positive nuclei fraction z-score” value is reported as 0.743.
With CO[C@H]1CC[C@H](N2C(=O)CNc3ncc(-c4ccc(C(C)(C)O)nc4)nc32)CC1 the “KCl-induced FOS+/EGR-1+ double-positive nuclei fraction z-score” value was -0.75.
For CCN(CC)CCOCCOC(=O)C1(c2ccccc2)CCCC1 [Pentoxyverine Citrate], the “KCl-induced FOS+/EGR-1+ double-positive nuclei fraction z-score” value was -0.531.
For CCCCOc1ccc(CC(=O)NO)cc1 [Bufexamac], the “KCl-induced FOS+/EGR-1+ double-positive nuclei fraction z-score” value was 0.973.
For CCCc1nc(C(C)(C)O)c(C(=O)OCc2oc(=O)oc2C)n1Cc1ccc(-c2ccccc2-c2nnn[nH]2)cc1 [Olmesartan Medoxomil], the “KCl-induced FOS+/EGR-1+ double-positive nuclei fraction z-score” value was -0.737.
In the case of CC1(O)CCC(C(C)(C)O)CC1 (configuration not stated) [Terpin hydrate], the “KCl-induced FOS+/EGR-1+ double-positive nuclei fraction z-score” value is reported as 0.567.
For COc1cc2ncnc(Nc3ccc(Cl)cc3F)c2cc1OC, the “KCl-induced FOS+/EGR-1+ double-positive nuclei fraction z-score” value was -0.517.
For FC(F)(F)c1ccc(CNc2ccc(Cc3c[nH]c4ncc(Cl)cc34)cn2)cn1 [Pexidartinib (PLX3397)], the “KCl-induced FOS+/EGR-1+ double-positive nuclei fraction z-score” value was 0.511.
Clc1ccc(C(c2c[nH]c3ccccc23)c2c[nH]c3ccccc23)cc1 was tested, and the “KCl-induced FOS+/EGR-1+ double-positive nuclei fraction z-score” value was -0.906.
With O=C(NCc1ccc(Oc2ccccc2)cc1)c1nc(-c2cc(Br)c(O)c(Br)c2)no1 the “KCl-induced FOS+/EGR-1+ double-positive nuclei fraction z-score” value was 0.918.
